Laboratory results: PubChem BioAssay AID602196 (INSERM, 2012)

- Test: 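Knock-downs that protect lung cancer cells from cisplatin or sensitise them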
- System: human A549 lung cancer cells
- Reagent: siRNA pair against human genes
- Time to read-out: 48 h transfection before cisplatin; time from cisplatin to read-out not stated
- Treatment: cisplatin at a dose killing half of control-siRNA cells; exact dose and duration not given
- Measured: 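Shift in cisplatin death relative to control siRNA, from -50 (all cells die) to +50 (no cells die); siRNAs harmful on their own scored 0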
- Direction: two-siRNA summed score (-2 to +2): higher = both siRNAs protect from cisplatin killing; -2 means both sensitise
- Rule for the call: 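Each siRNA scores 0 if harmful alone by LDH or WST-1, otherwise +1 if it reduces and -1 if it increases cisplatin killing; a gene is active when both siRNAs agree (sum +2 or -2)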
- Meaning of the calls: active = both siRNAs shift cisplatin killing the same way; inactive = no consistent shift, or siRNA harmful alone
In all, the deposit lists about 23,000 reagents; below is a part drawn at random. In the full data, 455 (2%) were called active. 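Active includes both protection and sensitisation; some change values fall well beyond the stated -50 to +50 range.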 Further read-outs or replicates are left out here. Not stated in the record: the amount of reagent.

gene knocked down	two-siRNA summed score (-2 to +2)	Outcome
RB1CC1	-1	inactive
FLJ37183	1	inactive
LOC441333	0	inactive
GPR22	0	inactive
SELPLG	-1	inactive
LOC441000	0	inactive
MBOAT2	2	active
LOC441453	-1	inactive
LOC400050	0	inactive
LGR5	0	inactive
OR6B1	0	inactive
KCNQ3	0	inactive
HSPA12A	0	inactive
TAS2R8	0	inactive
LOC143034	0	inactive
METAP1D	1	inactive
SLC7A2	0	inactive
KLHL8	0	inactive
RAD18	-1	inactive
AIRIM	0	inactive
FOXF2	-2	active
CPEB1	0	inactive
OR11A1	0	inactive
CZIB	0	inactive
ELK1	0	inactive
MVP	0	inactive
AKR1D1	0	inactive
LOC400701	0	inactive
DENND4A	0	inactive
KRT72	0	inactive
YIF1B	1	inactive
DMAC2L	0	inactive
P2RY10	0	inactive
OR52N1	0	inactive
CD53	0	inactive
ATP6V1G2	0	inactive
TCP1	0	inactive
AKR7A2	0	inactive
LOC439973	0	inactive
VRK3	0	inactive
BEST1	0	inactive
SATB1	-1	inactive
LOC401934	1	inactive
CEBPB	0	inactive
ADRM1	1	inactive
LOC285307	1	inactive
MTNAP1	0	inactive
PPHLN1	1	inactive
LOC91316	1	inactive
MRPL23	1	inactive
MTHFD1	-1	inactive
PRMT7	0	inactive
SRXN1	0	inactive
TRAF2	0	inactive
RARS1	-1	inactive
DPF3	0	inactive
PIP4K2C	1	inactive
